In PubChem BioAssay (EPA / NIEHS):
The entries are a selection whose mix differs from that of the whole data set. Records with an inconclusive call do not appear. The source made the active and inactive calls. Rule for the calls, unless noted: active = hit-call score of the fitted dose curve at least 0.9, where 1 is the maximum; inactive = score below 0.9.

Protein sequences, listed by entry. Tags and fused reporters are not part of them. Lines headed by an entry give the natural chain unless they say otherwise; changes in a name come on top.
UniProt O75469: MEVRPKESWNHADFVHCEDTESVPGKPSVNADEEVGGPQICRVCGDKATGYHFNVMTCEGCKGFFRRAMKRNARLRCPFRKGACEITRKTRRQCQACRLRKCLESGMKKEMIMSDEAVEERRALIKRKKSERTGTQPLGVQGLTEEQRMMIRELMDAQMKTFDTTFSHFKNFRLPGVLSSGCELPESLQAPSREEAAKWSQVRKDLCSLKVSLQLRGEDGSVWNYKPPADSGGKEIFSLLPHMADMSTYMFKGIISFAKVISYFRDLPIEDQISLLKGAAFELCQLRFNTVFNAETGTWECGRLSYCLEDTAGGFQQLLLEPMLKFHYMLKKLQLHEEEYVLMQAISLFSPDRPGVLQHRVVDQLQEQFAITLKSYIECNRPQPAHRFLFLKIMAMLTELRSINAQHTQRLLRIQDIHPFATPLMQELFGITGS
UniProt P37231: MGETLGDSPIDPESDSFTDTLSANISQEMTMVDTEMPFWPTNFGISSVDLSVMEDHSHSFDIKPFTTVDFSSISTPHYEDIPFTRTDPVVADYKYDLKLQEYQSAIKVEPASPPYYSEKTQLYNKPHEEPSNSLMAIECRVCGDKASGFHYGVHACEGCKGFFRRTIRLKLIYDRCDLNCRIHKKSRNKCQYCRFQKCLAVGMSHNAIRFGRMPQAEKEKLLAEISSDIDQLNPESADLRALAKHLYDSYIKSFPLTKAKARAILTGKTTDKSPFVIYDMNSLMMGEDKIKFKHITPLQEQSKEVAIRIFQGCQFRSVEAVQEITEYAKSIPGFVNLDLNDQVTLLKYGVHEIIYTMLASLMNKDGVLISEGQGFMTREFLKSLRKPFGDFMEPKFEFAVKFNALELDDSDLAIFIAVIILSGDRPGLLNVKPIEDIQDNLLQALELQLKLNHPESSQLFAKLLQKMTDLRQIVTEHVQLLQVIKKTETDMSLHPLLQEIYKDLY
UniProt P04637, whole entry, looked up: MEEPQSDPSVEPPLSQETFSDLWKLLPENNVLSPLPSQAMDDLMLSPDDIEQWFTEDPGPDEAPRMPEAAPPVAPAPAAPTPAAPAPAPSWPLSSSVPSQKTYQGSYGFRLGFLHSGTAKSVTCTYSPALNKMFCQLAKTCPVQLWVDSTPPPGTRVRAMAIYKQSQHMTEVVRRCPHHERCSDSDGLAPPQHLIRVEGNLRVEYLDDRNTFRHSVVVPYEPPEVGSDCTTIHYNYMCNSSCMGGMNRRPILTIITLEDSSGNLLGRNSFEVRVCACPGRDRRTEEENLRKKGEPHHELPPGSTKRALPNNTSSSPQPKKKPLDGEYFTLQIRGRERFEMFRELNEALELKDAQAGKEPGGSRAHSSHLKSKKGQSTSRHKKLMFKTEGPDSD

Tests used:
[1] = biological target: Nuclear receptor subfamily 1 group I member 2 (Homo sapiens) (UniProt O75469); test: ATG_PXR_TRANS: Attagene TRANS-FACTORIAL HepG2 Assay for human Pregnane X Receptor (PXR) (AID 2283008; active = hit-call score of the fitted dose curve at least 0.9, where 1 is the maximum)
How it was run: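 Multiplexed TRANS reporter panel in HepG2; this component tracks PXR-Gal4-driven reporter mRNA after 24 h dosing, measured by RT-PCR with capillary electrophoresis fluorescence, fitted against DMSO.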

[2] = read-out: Macrophage colony-stimulating factor (MCSF), CSF1 (gene 1435); test: BSK_hDFCGF_MCSF: BioMAP Diversity Plus: hDFCGF Assay for Macrophage colony-stimulating factor (MCSF) Biomarker Activity (AID 2283060); conditions: actives raise or lower the signal; primary human foreskin fibroblasts
How it was run: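 M-CSF levels, determined by ELISA, are taken at 24 h after dosing human skin fibroblasts. Responses in either direction are fitted with DMSO serving as the baseline.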

[3] = biological target: Peroxisome proliferator-activated receptor gamma (Homo sapiens) (UniProt P37231); test: ATG_PPARg_TRANS: Attagene TRANS-FACTORIAL HepG2 Assay for human Peroxisome Proliferator-activated Receptor-gamma (PPARg) (AID 2283007; active = hit-call score of the fitted dose curve at least 0.9, where 1 is the maximum)
How it was run: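 Twenty-four hours after chemical dosing of transiently transfected HepG2 cells, isolated RNA was converted to cDNA, reporter sequences amplified and 6-FAM-labelled, then HpaI-digested and analysed by capillary electrophoresis. Signal increase against DMSO was fitted.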

[4] = read-out: Cellular tumor antigen p53 (Homo sapiens) (UniProt P04637); test: LTEA_HepaRG_TP53: Life Technologies and Expression Analysis (LTEA) Assay for Tumor Protein P53 (TP53) using HepaRG (AID 2283537); conditions: actives raise or lower the signal; mRNA level, 48 h
How it was run: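 Gain or loss of TP53 mRNA signal is scored relative to 0.5% DMSO after 48 h chemical treatment of HepaRG liver cells, tested in duplicate at eight half-log concentrations up to 100 uM.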

Structure (SMILES)	AC50 [1]	AC50 [2]	AC50 [3]	AC50 [4]
COP(=S)(OC)Oc1cc(Cl)c(Cl)cc1Cl	active: 27.5 µM	active: 23.9 µM	–	–
O=C(O)C(F)(F)C(F)(F)C(F)(F)C(F)(F)C(F)(F)C(F)(F)C(F)(F)C(F)(F)C(F)(F)F	–	–	active: 16.1 µM	active: 88.4 µM
